Assay results: publication PMC9704527

Chains of the proteins cited; added tags and fusions are not shown.
UniProt Q9Y4K3: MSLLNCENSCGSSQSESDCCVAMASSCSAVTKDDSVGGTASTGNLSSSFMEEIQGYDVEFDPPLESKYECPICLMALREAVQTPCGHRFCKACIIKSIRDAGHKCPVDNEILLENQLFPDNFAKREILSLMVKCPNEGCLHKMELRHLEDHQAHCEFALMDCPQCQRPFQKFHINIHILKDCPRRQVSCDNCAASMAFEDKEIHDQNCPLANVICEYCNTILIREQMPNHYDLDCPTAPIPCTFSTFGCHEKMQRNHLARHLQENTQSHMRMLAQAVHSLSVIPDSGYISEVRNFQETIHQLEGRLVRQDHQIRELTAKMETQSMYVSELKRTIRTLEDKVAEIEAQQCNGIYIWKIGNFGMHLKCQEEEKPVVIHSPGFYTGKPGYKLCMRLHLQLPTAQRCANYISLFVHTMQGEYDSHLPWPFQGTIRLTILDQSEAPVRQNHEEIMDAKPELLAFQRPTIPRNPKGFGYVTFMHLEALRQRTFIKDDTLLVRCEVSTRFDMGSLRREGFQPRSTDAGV
UniProt Q96EP0: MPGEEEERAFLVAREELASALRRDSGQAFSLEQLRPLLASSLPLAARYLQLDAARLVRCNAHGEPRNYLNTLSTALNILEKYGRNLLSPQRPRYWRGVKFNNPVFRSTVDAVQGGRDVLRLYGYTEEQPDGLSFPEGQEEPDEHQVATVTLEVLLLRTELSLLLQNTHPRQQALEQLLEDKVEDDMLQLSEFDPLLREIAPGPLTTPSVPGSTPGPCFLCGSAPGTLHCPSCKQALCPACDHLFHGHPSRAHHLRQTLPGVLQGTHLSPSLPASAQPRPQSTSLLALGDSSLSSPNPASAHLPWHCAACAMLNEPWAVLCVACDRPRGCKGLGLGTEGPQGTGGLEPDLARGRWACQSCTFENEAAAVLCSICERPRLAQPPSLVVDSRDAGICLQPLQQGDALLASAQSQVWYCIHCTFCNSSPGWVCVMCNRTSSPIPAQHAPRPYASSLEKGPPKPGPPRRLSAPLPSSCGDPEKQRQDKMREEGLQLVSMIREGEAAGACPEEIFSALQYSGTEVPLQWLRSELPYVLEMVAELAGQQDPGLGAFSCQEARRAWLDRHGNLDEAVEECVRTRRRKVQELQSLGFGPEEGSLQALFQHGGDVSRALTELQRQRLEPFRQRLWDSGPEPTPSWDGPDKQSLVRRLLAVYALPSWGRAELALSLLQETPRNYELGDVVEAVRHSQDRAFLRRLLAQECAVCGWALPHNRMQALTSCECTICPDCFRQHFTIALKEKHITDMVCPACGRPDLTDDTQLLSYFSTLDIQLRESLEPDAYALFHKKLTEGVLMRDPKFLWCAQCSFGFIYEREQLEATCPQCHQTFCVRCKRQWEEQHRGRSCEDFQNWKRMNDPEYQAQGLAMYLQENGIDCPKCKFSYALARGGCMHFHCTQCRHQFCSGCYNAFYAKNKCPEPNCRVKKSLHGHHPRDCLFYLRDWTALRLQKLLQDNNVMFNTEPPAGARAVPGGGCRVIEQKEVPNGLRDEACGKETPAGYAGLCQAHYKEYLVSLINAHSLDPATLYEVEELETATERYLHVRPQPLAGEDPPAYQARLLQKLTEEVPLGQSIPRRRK
UniProt Q15025: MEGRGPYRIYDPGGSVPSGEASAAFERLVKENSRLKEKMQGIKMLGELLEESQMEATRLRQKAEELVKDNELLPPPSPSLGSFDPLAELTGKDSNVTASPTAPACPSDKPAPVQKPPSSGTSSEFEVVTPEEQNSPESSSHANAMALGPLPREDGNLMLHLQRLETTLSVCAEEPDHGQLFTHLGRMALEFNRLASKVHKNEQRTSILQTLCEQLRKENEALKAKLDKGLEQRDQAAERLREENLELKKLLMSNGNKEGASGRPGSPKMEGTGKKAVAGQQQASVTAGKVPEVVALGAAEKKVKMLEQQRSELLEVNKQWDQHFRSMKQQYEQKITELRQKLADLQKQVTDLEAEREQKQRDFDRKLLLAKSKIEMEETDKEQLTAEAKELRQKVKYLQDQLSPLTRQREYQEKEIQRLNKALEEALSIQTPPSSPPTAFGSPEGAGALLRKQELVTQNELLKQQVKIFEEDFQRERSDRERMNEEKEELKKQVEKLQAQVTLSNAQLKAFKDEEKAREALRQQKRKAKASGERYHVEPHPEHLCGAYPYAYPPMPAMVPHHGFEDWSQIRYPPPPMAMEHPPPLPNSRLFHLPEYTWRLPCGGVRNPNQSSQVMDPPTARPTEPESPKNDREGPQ
UniProt Q9BYM8: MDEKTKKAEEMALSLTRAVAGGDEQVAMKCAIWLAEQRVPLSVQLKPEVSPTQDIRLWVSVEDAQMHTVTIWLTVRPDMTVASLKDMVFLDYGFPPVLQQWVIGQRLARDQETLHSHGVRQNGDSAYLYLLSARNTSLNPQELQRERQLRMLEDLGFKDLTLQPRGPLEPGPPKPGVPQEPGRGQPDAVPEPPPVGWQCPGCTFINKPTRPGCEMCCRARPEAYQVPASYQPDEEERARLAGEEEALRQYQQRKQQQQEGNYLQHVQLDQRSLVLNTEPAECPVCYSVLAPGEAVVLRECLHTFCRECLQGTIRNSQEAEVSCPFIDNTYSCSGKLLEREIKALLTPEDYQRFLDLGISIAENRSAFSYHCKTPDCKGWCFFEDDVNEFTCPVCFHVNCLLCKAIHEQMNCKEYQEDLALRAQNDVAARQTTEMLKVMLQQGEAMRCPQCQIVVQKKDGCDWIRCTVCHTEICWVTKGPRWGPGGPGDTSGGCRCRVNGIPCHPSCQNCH

Target: FLAG-TRAF6 (UniProt Q9Y4K3)
Experiment: affinity purification with mass spectrometry; FLAG-TRAF6 stably expressed in TRAF6 KO HEK293 cells, stimulated with 10 µM ADP-heptose (20 min in the results, 15 min in the methods) or left untreated; extracts (1% Triton X-100, 100 mM iodoacetamide) on anti-FLAG M2 affinity gel 4 h at 4°C, washes with 300 mM NaCl, elution with 3X FLAG peptide; TMT quantification, enrichment after ADP-heptose

Row | binding | Molecule
1 | binds | TIFA (protein, UniProt Q96CG3 1-184) MTSFEDADTEETVTCLQMTVYHPGQLQCGIFQSISFNREKLPSSEVVKFGRNSNICHYTFQDKQVSRVQFSLQLFKKFNSSVLSFEIKNMSKKTNLIVDSRELGYLNKMDLPYRCMVRFGEYQFLMEKEDGESLEFFETQFILSPRSLLQENNWPPHRPIPEYGTYSLCSSQSSSPTEMDENES
2 | binds | TAB3 (protein, UniProt Q8N5C8 1-712) MAQSSPQLDIQVLHDLRQRFPEIPEGVVSQCMLQNNNNLEACCRALSQESSKYLYMEYHSPDDNRMNRNRLLHINLGIHSPSSYHPGDGAQLNGGRTLVHSSSDGHIDPQHAAGKQLICLVQEPHSAPAVVAATPNYNPFFMNEQNRSAATPPSQPPQQPSSMQTGMNPSAMQGPSPPPPPPSYMHIPRYSTNPITVTVSQNLPSGQTVPRALQILPQIPSNLYGSPGSIYIRQTSQSSSGRQTPQSTPWQSSPQGPVPHYSQRPLPVYPHQQNYQPSQYSPKQQQIPQSAYHSPPPSQCPSPFSSPQHQVQPSQLGHIFMPPSPSTTPPHPYQQGPPSYQKQGSHSVAYLPYTASSLSKGSMKKIEITVEPSQRPGTAINRSPSPISNQPSPRNQHSLYTATTPPSSSPSRGISSQPKPPFSVNPVYITYTQPTGPSCTPSPSPRVIPNPTTVFKITVGRATTENLLNLVDQEERSAAPEPIQPISVIPGSGGEKGSHKYQRSSSSGSDDYAYTQALLLHQRARMERLAKQLKLEKEELERLKSEVNGMEHDLMQRRLRRVSCTTAIPTPEEMTRLRSMNRQLQINVDCTLKEVDLLQSRGNFDPKAMNNFYDNIEPGPVVPPKPSKKDSSDPCTIERKARRISVTSKVQADIHDTQAAAADEHRTGSTQSPRTQPRDEDYEGAPWNCDSCTFLNHPALNRCEQCEMPRYT
3 | binds | TAK1 (protein, UniProt O43318 1-606) MSTASAASSSSSSSAGEMIEAPSQVLNFEEIDYKEIEVEEVVGRGAFGVVCKAKWRAKDVAIKQIESESERKAFIVELRQLSRVNHPNIVKLYGACLNPVCLVMEYAEGGSLYNVLHGAEPLPYYTAAHAMSWCLQCSQGVAYLHSMQPKALIHRDLKPPNLLLVAGGTVLKICDFGTACDIQTHMTNNKGSAAWMAPEVFEGSNYSEKCDVFSWGIILWEVITRRKPFDEIGGPAFRIMWAVHNGTRPPLIKNLPKPIESLMTRCWSKDPSQRPSMEEIVKIMTHLMRYFPGADEPLQYPCQYSDEGQSNSATSTGSFMDIASTNTSNKSDTNMEQVPATNDTIKRLESKLLKNQAKQQSESGRLSLGASRGSSVESLPPTSEGKRMSADMSEIEARIAATTAYSKPKRGHRKTASFGNILDVPEIVISGNGQPRRRSIQDLTVTGTEPGQVSSRSSSPSVRMITTSGPTSEKPTRSHPWTPDDSTDTNGSDNSIPMAYLTLDHQLQPLAPCPNSKESMAVFEQHCKMAQEYMKVQTEIALLLQRKQELVAELDQDEKDQQNTSRLVQEHKKLLDENKSLSTYYQQCKKQLEVIRSQQQKRQGTS
4 | binds | TAB2 (protein, UniProt Q9NYJ8 1-693) MAQGSHQIDFQVLHDLRQKFPEVPEVVVSRCMLQNNNNLDACCAVLSQESTRYLYGEGDLNFSDDSGISGLRNHMTSLNLDLQSQNIYHHGREGSRMNGSRTLTHSISDGQLQGGQSNSELFQQEPQTAPAQVPQGFNVFGMSSSSGASNSAPHLGFHLGSKGTSSLSQQTPRFNPIMVTLAPNIQTGRNTPTSLHIHGVPPPVLNSPQGNSIYIRPYITTPGGTTRQTQQHSGWVSQFNPMNPQQVYQPSQPGPWTTCPASNPLSHTSSQQPNQQGHQTSHVYMPISSPTTSQPPTIHSSGSSQSSAHSQYNIQNISTGPRKNQIEIKLEPPQRNNSSKLRSSGPRTSSTSSSVNSQTLNRNQPTVYIAASPPNTDELMSRSQPKVYISANAATGDEQVMRNQPTLFISTNSGASAASRNMSGQVSMGPAFIHHHPPKSRAIGNNSATSPRVVVTQPNTKYTFKITVSPNKPPAVSPGVVSPTFELTNLLNHPDHYVETENIQHLTDPTLAHVDRISETRKLSMGSDDAAYTQALLVHQKARMERLQRELEIQKKKLDKLKSEVNEMENNLTRRRLKRSNSISQIPSLEEMQQLRSCNRQLQIDIDCLTKEIDLFQARGPHFNPSAIHNFYDNIGFVGPVPPKPKDQRSIIKTPKTQDTEDDEGAQWNCTACTFLNHPALIRCEQCEMPRHF

The next lines start with the molecule.

Row | Molecule | binding
5 | HOIP (from UniProt Q96EP0 1-1072) | binds
6 | ABIN1 (A20-binding inhibitor of NF-κB) (from UniProt Q15025 1-636) | binds
7 | HOIL-1 (from UniProt Q9BYM8 1-510) | binds
8 | HtrA2/Omi (protein, UniProt O43464 134-458) AVPSPPPASPRSQYNFIADVVEKTAPAVVYIEILDRHPFLGREVPISNGSGFVVAADGLIVTNAHVVADRRRVRVRLLSGDTYEAVVTAVDPVADIATLRIQTKEPLPTLPLGRSADVRQGEFVVAMGSPFALQNTITSGIVSSAQRPARDLGLPQTNVEYIQTDAAIDFGNSGGPLVNLDGEVIGVNTMKVTAGISFAIPSDRLREFLHRGEKKNSSSGISGSQRRYIGVMMLTLSPSILAELQLREPSFPDVQHGVLIHKVILGSPAHRAGLRPGDVILAIGEQMVQNAEDVYEAVRTQSQLAVQIRRGRETLTLYVTPEVTE | binds
9 | Sharpin (protein, UniProt Q9H0F6 1-387) MAPPAGGAAAAASDLGSAAVLLAVHAAVRPLGAGPDAEAQLRRLQLSADPERPGRFRLELLGAGPGAVNLEWPLESVSYTIRGPTQHELQPPPGGPGTLSLHFLNPQEAQRWAVLVRGATVEGQNGSKSNSPPALGPEACPVSLPSPPEASTLKGPPPEADLPRSPGNLTEREELAGSLARAIAGGDEKGAAQVAAVLAQHRVALSVQLQEACFPPGPIRLQVTLEDAASAASAASSAHVALQVHPHCTVAALQEQVFSELGFPPAVQRWVIGRCLCVPERSLASYGVRQDGDPAFLYLLSAPREAPATGPSPQHPQKMDGELGRLFPPSLGLPPGPQPAASSLPSPLQPSWSCPSCTFINAPDRPGCEMCSTQRPCTWDPLAAAST | binds
10 | TAB1 (protein, UniProt Q15750 1-504) MAAQRRSLLQSEQQPSWTDDLPLCHLSGVGSASNRSYSADGKGTESHPPEDSWLKFRSENNCFLYGVFNGYDGNRVTNFVAQRLSAELLLGQLNAEHAEADVRRVLLQAFDVVERSFLESIDDALAEKASLQSQLPEGVPQHQLPPQYQKILERLKTLEREISGGAMAVVAVLLNNKLYVANVGTNRALLCKSTVDGLQVTQLNVDHTTENEDELFRLSQLGLDAGKIKQVGIICGQESTRRIGDYKVKYGYTDIDLLSAAKSKPIIAEPEIHGAQPLDGVTGFLVLMSEGLYKALEAAHGPGQANQEIAAMIDTEFAKQTSLDAVAQAVVDRVKRIHSDTFASGGERARFCPRHEDMTLLVRNFGYPLGEMSQPTPSPAPAAGGRVYPVSVPYSSAQSTSKTSVTLSLVMPSQGQMVNGAHSASTLDEATPTLTNQSPTLTLQSTNTHTQSSSSSSDGGLFRSRPAHSLPPGEDGRVEPYVDFAEFYRLWSVDHGEQSVVTAP | binds
11 | IKKβ (protein, UniProt O14920 1-756) MSWSPSLTTQTCGAWEMKERLGTGGFGNVIRWHNQETGEQIAIKQCRQELSPRNRERWCLEIQIMRRLTHPNVVAARDVPEGMQNLAPNDLPLLAMEYCQGGDLRKYLNQFENCCGLREGAILTLLSDIASALRYLHENRIIHRDLKPENIVLQQGEQRLIHKIIDLGYAKELDQGSLCTSFVGTLQYLAPELLEQQKYTVTVDYWSFGTLAFECITGFRPFLPNWQPVQWHSKVRQKSEVDIVVSEDLNGTVKFSSSLPYPNNLNSVLAERLEKWLQLMLMWHPRQRGTDPTYGPNGCFKALDDILNLKLVHILNMVTGTIHTYPVTEDESLQSLKARIQQDTGIPEEDQELLQEAGLALIPDKPATQCISDGKLNEGHTLDMDLVFLFDNSKITYETQISPRPQPESVSCILQEPKRNLAFFQLRKVWGQVWHSIQTLKEDCNRLQQGQRAAMMNLLRNNSCLSKMKNSMASMSQQLKAKLDFFKTSIQIDLEKYSEQTEFGITSDKLLLAWREMEQAVELCGRENEVKLLVERMMALQTDIVDLQRSPMGRKQGGTLDDLEEQARELYRRLREKPRDQRTEGDSQEMVRLLLQAIQSFEKKVRVIYTQLSKTVVCKQKALELLPKVEEVVSLMNEDEKTVVRLQEKRQKELWNLLKIACSKVRGPVSGSPDSMNASRLSQPGQLMSQPSTASNSLPEPAKKSEELVAEAHNLCTLLENAIQDTVREQDQSFTALDWSWLQTEEEEHSCLEQAS | binds

No constants are given. Whether binding was seen depends on the method and setting. In cells and extracts the contact can be indirect. These calls come from enrichment with a bait or labelling near it, and not all partners need be listed.
